In PubChem BioAssay AID330 (DTP/NCI, 2004):
The list shows only some results of the screen, not a fair sample: it is rich in T/C values a quarter to a half above the control, in often repeated tests (any T/C) and in doses without a T/C. Further doses and runs are listed elsewhere. T/C gives the treated animals as a percentage of the vehicle group. Some doses have a count of surviving animals in place of a T/C: the source holds a T/C of zero for them, seemingly a mark for toxic or unscored doses. Some survivor counts are full or nearly so, which does not show that the dose was tolerated: the source hardly ever lists a survival T/C far under the control, and the zero likely stands for such cases as well. Counts of survivors are from the toxicity check (mostly the fifth day) where no day follows; animals may have died later. Schedules are NCI's codes, read here as Q, the interval in days (D) or hours (H), X, the number of doses. Some entries hold several experiments; the values are given in rising order. For survival time, the PubChem record calls one and a half times the control and up active, and a quarter to a half above the control has no call in these data; cut-offs in other NCI protocols can differ.

System: P388 leukemia ip, CD2F1 mice, survival T/C
Test: NCI In Vivo Anticancer Drug Screen. Data for tumor model P388 Leukemia (intraperitoneal) in CD2F1 (CDF1) mice
Settings: T/C endpoint: median survival time, higher T/C = longer survival
[1] = dose: 25.0 mg/kg/injection, schedule: Q01DX009 (ip), vehicle: saline
[2] = dose: 100.0 mg/kg/injection, schedule: Q01DX009 (ip), vehicle: Klucel (hydroxypropylcellulose) (HPC)
[3] = dose: 200.0 mg/kg/injection, schedule: Q01DX009 (ip), vehicle: Klucel (hydroxypropylcellulose) (HPC)
[4] = dose: 25.0 mg/kg/injection, schedule: Q01DX005 (ip), vehicle: Klucel (hydroxypropylcellulose) (HPC)
[5] = dose: 200.0 mg/kg/injection, schedule: Q01DX005 (ip), vehicle: Klucel (hydroxypropylcellulose) (HPC)
[6] = dose: 100.0 mg/kg/injection, schedule: Q04DX003 (ip), vehicle: saline with Tween-80
[7] = dose: 200.0 mg/kg/injection, schedule: Q04DX003 (ip), vehicle: saline
[8] = dose: 100.0 mg/kg/injection, schedule: Q04DX003 (ip), vehicle: saline
[9] = dose: 400.0 mg/kg/injection, schedule: Q04DX003 (ip), vehicle: saline
[10] = dose: 100.0 mg/kg/injection, schedule: Q01DX009 (ip), vehicle: saline with Tween-80
[11] = dose: 240.0 mg/kg/injection, schedule: Q01DX005 (ip), vehicle: saline with Tween-80

CC1=CC(=O)C(O)C2(C)C1CC1OC(=O)C(O)C3(O)C4(C)OCC13C2C(O)C4O (stereo not drawn)
survivor count (dose: 3.0 mg/kg/injection, schedule: Q01DX009 (ip), vehicle: saline + alcohol): 4 of 6
survivor count (dose: 6.0 mg/kg/injection, schedule: Q01DX009 (ip), vehicle: saline + alcohol): 0 of 6
survivor count (dose: 12.0 mg/kg/injection, schedule: Q01DX009 (ip), vehicle: saline + alcohol): 0 of 6

O=C(Nc1cccc(C(=O)Nc2ccc(C3=NCCN3)cc2)c1)c1ccc(C2=NCCN2)cc1
T/C [1]: 127 % of control

Cc1ccc(O)c2c(NCCCCCCNc3cc(C)[n+](C)c4c(C)ccc(O)c34)cc(C)[n+](C)c12
survivor count (dose: 50.0 mg/kg/injection, schedule: Q01DX005 (ip), vehicle: saline with Tween-80): 3 of 5
survivor count (dose: 100.0 mg/kg/injection, schedule: Q01DX005 (ip), vehicle: saline with Tween-80): 3 of 5
survivor count (dose: 200.0 mg/kg/injection, schedule: Q01DX005 (ip), vehicle: saline with Tween-80): 1 of 5

CCOC(=O)C(C)(C(=O)OCC)n1cnc2c1c(=O)n(C)c(=O)n2C
survivor count (dose: 6.25 mg/kg/injection, schedule: Q01DX009 (ip), vehicle: Klucel (hydroxypropylcellulose) (HPC)): 6 of 6
survivor count (dose: 12.5 mg/kg/injection, schedule: Q01DX009 (ip), vehicle: Klucel (hydroxypropylcellulose) (HPC)): 6 of 6
survivor count (dose: 25.0 mg/kg/injection, schedule: Q01DX009 (ip), vehicle: Klucel (hydroxypropylcellulose) (HPC)): 6 of 6

COc1ccc(N=C([Se])CCC(C)C)cc1
survivor count (dose: 50.0 mg/kg/injection, schedule: Q01DX009 (ip), vehicle: Klucel (hydroxypropylcellulose) (HPC)): 1 of 6
survivor count [2]: 0 of 6
survivor count [3]: 0 of 6

COc1cc2cc3cc(-c4ccc(Cl)cc4)c(N4CCCCC4)nc3nc2cc1OC
survivor count (dose: 15.0 mg/kg/injection, schedule: Q01DX005 (ip), vehicle: saline with Tween-80): 6 of 6
survivor count (dose: 60.0 mg/kg/injection, schedule: Q01DX005 (ip), vehicle: saline with Tween-80): 6 of 6
survivor count (dose: 120.0 mg/kg/injection, schedule: Q01DX005 (ip), vehicle: saline with Tween-80): 6 of 6

COc1ccc(/C=N/Nc2cc(C)nc3cc4c(cc23)OCO4)c2ccccc12
survivor count [4]: 1 of 6
survivor count (dose: 50.0 mg/kg/injection, schedule: Q01DX005 (ip), vehicle: Klucel (hydroxypropylcellulose) (HPC)): 0 of 6
survivor count (dose: 100.0 mg/kg/injection, schedule: Q01DX005 (ip), vehicle: Klucel (hydroxypropylcellulose) (HPC)): 0 of 6
survivor count [5]: 0 of 6

CCN(CC)Sc1cccc([N+](=O)[O-])c1
survivor count [2]: 1 of 6
survivor count [3]: 0 of 6

CN(C)c1ccc(Nc2c3ccccc3nc3ccccc23)cc1
T/C (dose: 12.5 mg/kg/injection, schedule: Q04DX002 (ip), vehicle: distilled water + Tween-80): 125 % of control
T/C (dose: 43.2 mg/kg/injection, schedule: Q04DX003 (ip), vehicle: saline): 130 % of control
T/C (dose: 60.0 mg/kg/injection, schedule: Q04DX003 (ip), vehicle: saline with Tween-80): 128 and 144 % of control
T/C (dose: 72.0 mg/kg/injection, schedule: Q04DX003 (ip), vehicle: saline): 144 % of control
survivor count (dose: 100.0 mg/kg/injection, schedule: Q04DX002 (ip), vehicle: distilled water + Tween-80): 0 of 6 and 3 of 6
T/C [6]: 136 % of control
survivor count (dose: 200.0 mg/kg/injection, schedule: Q04DX002 (ip), vehicle: distilled water + Tween-80): 2 of 6
survivor count [7]: 1 of 8
survivor count (dose: 400.0 mg/kg/injection, schedule: Q04DX002 (ip), vehicle: distilled water + Tween-80): 0 of 6

C1CN2CCCN3CCCN(C1)P23
survivor count (dose: 400.0 mg/kg/injection, schedule: Q04DX002 (ip), vehicle: saline): 0 of 6

CCC(=N\NC(=S)NCCN(C)C)/C(C)=N/NC(=S)NCCN(C)C
survivor count (dose: 6.25 mg/kg/injection, schedule: Q04DX003 (ip), vehicle: saline): 6 of 6
survivor count (dose: 12.5 mg/kg/injection, schedule: Q04DX003 (ip), vehicle: saline): 0 of 6
survivor count (dose: 25.0 mg/kg/injection, schedule: Q04DX003 (ip), vehicle: saline): 0 of 6
survivor count [6]: 0 of 6
survivor count (dose: 200.0 mg/kg/injection, schedule: Q04DX003 (ip), vehicle: saline with Tween-80): 0 of 6
survivor count (dose: 400.0 mg/kg/injection, schedule: Q04DX003 (ip), vehicle: saline with Tween-80): 0 of 6

CN1CCN(c2c3ccccc3nc3ccccc23)CC1
survivor count [8]: 4 of 6
survivor count [7]: 0 of 6
survivor count [9]: 0 of 6

Cc1cc(NCCCN(C)C)c2c(ccc3c(NCCCN(C)C)cc(C)nc32)n1
survivor count (dose: 48.0 mg/kg/injection, schedule: Q01DX009 (ip), vehicle: saline with Tween-80): 1 of 6
survivor count (dose: 96.0 mg/kg/injection, schedule: Q01DX009 (ip), vehicle: saline with Tween-80): 0 of 6

COC(=O)/C=C(\I)C(=O)OC
survivor count (dose: 50.0 mg/kg/injection, schedule: Q01DX009 (ip), vehicle: saline with Tween-80): 0 of 6
survivor count [10]: 0 of 6
survivor count (dose: 200.0 mg/kg/injection, schedule: Q01DX009 (ip), vehicle: saline with Tween-80): 0 of 6

O=C1NC(=O)c2ccc3c4ccc5c6c(ccc(c7ccc1c2c73)c64)C(=O)N(c1ccccc1)C5=O
survivor count [4]: 6 of 6

CCOC(=O)CC(=O)Nc1sc(CC)cc1C(=O)OCC
survivor count [11]: 6 of 6

CC(=O)NC(Cc1cccc(F)c1)C(=O)O (stereo not drawn)
survivor count (dose: 12.5 mg/kg/injection, schedule: Q01DX009 (ip), vehicle: saline): 1 of 6
survivor count [1]: 0 of 6

C[O][Sn]([CH3])([CH3])[O][Sn]([CH3])([CH3])[Cl]
survivor count [8]: 0 of 6
survivor count [7]: 0 of 6
survivor count [9]: 0 of 6

c1ccc2c(c1)[nH]c1c2c(N2CCOCC2)nn2cnnc12
survivor count [5]: 2 of 6

CCC1=C[C@H]2CN(CCc3c([nH]c4ccccc34)[C@@](OC(C)=O)(c3cc4c(cc3OC)N(C)[C@H]3[C@@](O)(C(=O)NCCSc5ccccc5)[C@H](O)[C@]5(CC)C=CCN6CC[C@]43[C@@H]65)C2)C1
T/C (dose: 1.0 mg/kg/injection, schedule: Q01DX001 (ip), vehicle: water): 125 % of control
T/C (dose: 2.0 mg/kg/injection, schedule: Q01DX001 (ip), vehicle: water): 128 % of control
T/C (dose: 4.0 mg/kg/injection, schedule: Q01DX001 (ip), vehicle: water): 136 and 145 % of control
T/C (dose: 8.0 mg/kg/injection, schedule: Q01DX001 (ip), vehicle: water): 141 % of control
survivor count (dose: 32.0 mg/kg/injection, schedule: Q01DX001 (ip), vehicle: water): 3 of 6

Nc1ccc2c(SCCCCSc3c4ccccc4nc4cc(N)ccc34)c3ccccc3nc2c1
survivor count [11]: 0 of 6

O=C(O)CCNC1=CC(=O)c2ccccc2C1=O
survivor count [3]: 6 of 6

CCC(=O)Oc1ccc(C2N(Cc3ccc(N(C)C)cc3)CCCN2Cc2ccc(N(C)C)cc2)cc1
survivor count [10]: 5 of 6

COc1c2ccoc2nc2c(O)c3c(c(CC=C(C)C)c12)OCO3
survivor count (dose: 23.75 mg/kg/injection, schedule: Q01DX005 (ip), vehicle: Klucel (hydroxypropylcellulose) (HPC)): 5 of 5
survivor count (dose: 95.0 mg/kg/injection, schedule: Q01DX005 (ip), vehicle: Klucel (hydroxypropylcellulose) (HPC)): 5 of 5
survivor count (dose: 190.0 mg/kg/injection, schedule: Q01DX005 (ip), vehicle: Klucel (hydroxypropylcellulose) (HPC)): 5 of 5

Cc1cccc(NN=O)n1
T/C (dose: 6.25 mg/kg/injection, schedule: Q01DX009 (ip), vehicle: water): 141 % of control
T/C (dose: 12.5 mg/kg/injection, schedule: Q01DX009 (ip), vehicle: water): 144 and 149 % of control
survivor count (dose: 25.0 mg/kg/injection, schedule: Q01DX009 (ip), vehicle: water): 6 of 6
